{"sequences": {"note": "By UniProt entry, the sequences of proteins in these tests, tags left out. Where a name states a change or a piece, a line headed by the entry shows the natural chain unless it says otherwise.", "UniProt Q03112": "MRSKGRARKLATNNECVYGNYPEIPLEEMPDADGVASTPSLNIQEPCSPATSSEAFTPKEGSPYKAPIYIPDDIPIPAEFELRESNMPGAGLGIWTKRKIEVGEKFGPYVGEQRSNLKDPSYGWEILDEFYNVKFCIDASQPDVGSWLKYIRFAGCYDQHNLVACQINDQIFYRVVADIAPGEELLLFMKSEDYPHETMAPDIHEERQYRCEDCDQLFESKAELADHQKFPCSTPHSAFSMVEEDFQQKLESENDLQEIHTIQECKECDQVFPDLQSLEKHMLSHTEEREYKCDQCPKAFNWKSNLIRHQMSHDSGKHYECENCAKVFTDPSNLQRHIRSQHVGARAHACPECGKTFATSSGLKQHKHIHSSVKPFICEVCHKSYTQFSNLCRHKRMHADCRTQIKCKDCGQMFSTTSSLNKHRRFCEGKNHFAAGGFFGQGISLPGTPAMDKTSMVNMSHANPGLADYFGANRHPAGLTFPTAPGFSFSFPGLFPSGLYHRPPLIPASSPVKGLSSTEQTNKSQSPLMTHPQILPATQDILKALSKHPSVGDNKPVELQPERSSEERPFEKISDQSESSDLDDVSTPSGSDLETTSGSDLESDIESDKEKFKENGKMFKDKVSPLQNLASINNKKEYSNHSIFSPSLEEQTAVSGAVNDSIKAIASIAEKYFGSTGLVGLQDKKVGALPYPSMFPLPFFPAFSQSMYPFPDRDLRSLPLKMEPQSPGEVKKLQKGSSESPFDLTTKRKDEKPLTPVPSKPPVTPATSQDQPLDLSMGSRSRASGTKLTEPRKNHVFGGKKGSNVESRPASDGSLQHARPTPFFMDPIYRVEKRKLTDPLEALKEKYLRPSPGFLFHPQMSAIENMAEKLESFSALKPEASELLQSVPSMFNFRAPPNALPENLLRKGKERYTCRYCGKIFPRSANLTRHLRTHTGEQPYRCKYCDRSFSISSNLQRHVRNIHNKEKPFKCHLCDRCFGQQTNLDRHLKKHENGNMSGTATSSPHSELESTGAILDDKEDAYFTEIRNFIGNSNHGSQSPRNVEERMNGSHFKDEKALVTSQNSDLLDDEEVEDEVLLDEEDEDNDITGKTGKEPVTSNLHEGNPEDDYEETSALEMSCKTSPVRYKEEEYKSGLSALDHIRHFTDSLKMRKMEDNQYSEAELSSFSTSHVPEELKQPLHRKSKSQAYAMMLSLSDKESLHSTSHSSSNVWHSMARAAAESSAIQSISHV", "UniProt P98177": "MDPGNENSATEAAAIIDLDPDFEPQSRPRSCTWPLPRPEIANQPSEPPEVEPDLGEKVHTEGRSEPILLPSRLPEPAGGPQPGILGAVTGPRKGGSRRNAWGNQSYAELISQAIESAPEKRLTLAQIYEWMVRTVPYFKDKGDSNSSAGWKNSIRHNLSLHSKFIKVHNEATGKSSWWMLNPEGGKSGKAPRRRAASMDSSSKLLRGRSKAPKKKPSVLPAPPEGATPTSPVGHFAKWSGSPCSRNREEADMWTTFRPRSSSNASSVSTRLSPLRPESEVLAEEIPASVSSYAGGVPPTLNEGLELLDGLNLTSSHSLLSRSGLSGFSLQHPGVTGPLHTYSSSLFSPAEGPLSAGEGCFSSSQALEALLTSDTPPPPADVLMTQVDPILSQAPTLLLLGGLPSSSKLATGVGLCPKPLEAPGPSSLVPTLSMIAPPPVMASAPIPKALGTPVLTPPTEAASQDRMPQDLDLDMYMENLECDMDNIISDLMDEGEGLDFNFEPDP", "UniProt Q12888": "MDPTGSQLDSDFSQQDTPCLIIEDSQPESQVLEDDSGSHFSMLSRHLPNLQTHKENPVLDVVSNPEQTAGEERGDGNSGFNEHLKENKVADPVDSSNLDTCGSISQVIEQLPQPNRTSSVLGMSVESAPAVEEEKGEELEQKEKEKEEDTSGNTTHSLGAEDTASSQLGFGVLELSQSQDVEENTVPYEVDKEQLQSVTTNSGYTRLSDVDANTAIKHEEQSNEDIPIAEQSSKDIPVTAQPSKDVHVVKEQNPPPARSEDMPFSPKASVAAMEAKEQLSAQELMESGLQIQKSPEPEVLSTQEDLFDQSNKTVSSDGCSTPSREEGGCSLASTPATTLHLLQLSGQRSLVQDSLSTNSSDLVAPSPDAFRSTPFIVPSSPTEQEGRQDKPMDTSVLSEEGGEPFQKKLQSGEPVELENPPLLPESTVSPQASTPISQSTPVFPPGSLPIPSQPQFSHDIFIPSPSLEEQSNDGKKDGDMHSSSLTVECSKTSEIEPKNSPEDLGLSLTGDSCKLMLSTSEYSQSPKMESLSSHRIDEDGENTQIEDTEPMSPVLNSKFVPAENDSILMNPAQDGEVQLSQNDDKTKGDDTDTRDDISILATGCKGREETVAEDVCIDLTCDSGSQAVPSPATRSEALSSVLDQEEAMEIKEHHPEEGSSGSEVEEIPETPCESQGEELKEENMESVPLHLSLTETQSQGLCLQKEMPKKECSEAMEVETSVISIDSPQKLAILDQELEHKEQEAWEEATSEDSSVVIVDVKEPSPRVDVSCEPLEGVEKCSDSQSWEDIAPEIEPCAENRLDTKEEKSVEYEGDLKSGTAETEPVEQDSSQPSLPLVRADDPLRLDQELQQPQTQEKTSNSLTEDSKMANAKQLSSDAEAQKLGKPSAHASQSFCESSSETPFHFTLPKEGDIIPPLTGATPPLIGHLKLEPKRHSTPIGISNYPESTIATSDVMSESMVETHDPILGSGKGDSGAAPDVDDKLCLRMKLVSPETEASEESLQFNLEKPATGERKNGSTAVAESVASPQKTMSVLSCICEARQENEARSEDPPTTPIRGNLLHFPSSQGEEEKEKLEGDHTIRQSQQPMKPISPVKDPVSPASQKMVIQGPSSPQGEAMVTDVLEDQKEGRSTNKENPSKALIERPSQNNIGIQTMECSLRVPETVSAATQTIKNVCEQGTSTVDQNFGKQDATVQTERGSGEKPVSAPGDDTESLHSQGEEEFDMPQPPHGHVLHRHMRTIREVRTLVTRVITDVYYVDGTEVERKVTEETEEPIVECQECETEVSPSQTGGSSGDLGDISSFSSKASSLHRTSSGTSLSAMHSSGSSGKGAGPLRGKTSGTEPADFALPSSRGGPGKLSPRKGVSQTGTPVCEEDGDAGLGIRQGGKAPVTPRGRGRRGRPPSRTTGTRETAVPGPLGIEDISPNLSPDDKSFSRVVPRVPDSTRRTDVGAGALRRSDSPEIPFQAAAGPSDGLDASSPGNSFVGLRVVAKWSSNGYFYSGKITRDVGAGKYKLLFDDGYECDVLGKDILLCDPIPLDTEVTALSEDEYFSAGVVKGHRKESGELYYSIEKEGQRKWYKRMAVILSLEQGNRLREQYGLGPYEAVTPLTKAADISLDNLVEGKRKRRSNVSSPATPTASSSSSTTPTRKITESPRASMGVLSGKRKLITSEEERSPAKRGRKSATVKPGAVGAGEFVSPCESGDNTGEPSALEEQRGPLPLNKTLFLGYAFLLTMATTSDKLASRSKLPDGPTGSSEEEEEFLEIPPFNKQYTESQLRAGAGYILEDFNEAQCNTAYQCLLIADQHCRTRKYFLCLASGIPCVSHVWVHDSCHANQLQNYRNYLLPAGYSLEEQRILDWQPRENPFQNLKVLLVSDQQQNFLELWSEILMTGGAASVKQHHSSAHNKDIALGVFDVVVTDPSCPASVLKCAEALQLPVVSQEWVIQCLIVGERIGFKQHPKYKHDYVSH", "UniProt Q03933": "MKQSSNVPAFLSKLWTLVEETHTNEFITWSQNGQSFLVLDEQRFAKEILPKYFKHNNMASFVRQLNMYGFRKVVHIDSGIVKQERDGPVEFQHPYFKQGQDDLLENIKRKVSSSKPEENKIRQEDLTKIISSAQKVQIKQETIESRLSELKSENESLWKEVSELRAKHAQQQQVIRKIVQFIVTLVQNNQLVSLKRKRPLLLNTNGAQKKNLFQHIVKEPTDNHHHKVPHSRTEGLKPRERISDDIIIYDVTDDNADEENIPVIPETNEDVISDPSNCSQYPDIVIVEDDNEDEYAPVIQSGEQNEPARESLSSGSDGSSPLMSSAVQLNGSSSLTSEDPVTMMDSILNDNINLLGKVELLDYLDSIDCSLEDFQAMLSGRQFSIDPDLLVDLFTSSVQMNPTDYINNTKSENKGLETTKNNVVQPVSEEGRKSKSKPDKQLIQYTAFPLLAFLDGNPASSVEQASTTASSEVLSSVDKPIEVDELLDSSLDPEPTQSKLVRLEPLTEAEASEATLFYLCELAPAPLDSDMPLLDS", "UniProt Q12996": "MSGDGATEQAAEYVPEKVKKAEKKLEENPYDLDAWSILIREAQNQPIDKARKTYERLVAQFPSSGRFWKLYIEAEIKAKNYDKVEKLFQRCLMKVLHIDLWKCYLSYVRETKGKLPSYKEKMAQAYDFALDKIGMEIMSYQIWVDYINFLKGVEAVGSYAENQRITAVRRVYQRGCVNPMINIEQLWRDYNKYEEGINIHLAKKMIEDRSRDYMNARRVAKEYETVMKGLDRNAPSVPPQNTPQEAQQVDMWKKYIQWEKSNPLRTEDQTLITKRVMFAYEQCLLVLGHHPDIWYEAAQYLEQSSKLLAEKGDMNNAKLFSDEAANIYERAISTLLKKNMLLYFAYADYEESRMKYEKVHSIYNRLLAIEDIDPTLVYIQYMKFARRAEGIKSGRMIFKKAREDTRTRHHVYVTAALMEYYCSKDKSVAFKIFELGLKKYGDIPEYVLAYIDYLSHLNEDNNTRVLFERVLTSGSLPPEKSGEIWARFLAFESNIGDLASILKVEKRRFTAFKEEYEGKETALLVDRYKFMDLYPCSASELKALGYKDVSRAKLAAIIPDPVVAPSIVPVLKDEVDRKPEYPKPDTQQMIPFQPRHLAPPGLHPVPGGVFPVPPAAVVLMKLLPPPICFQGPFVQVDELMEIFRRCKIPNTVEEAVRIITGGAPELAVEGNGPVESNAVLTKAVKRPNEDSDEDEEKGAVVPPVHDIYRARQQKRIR", "UniProt Q04637, whole entry": "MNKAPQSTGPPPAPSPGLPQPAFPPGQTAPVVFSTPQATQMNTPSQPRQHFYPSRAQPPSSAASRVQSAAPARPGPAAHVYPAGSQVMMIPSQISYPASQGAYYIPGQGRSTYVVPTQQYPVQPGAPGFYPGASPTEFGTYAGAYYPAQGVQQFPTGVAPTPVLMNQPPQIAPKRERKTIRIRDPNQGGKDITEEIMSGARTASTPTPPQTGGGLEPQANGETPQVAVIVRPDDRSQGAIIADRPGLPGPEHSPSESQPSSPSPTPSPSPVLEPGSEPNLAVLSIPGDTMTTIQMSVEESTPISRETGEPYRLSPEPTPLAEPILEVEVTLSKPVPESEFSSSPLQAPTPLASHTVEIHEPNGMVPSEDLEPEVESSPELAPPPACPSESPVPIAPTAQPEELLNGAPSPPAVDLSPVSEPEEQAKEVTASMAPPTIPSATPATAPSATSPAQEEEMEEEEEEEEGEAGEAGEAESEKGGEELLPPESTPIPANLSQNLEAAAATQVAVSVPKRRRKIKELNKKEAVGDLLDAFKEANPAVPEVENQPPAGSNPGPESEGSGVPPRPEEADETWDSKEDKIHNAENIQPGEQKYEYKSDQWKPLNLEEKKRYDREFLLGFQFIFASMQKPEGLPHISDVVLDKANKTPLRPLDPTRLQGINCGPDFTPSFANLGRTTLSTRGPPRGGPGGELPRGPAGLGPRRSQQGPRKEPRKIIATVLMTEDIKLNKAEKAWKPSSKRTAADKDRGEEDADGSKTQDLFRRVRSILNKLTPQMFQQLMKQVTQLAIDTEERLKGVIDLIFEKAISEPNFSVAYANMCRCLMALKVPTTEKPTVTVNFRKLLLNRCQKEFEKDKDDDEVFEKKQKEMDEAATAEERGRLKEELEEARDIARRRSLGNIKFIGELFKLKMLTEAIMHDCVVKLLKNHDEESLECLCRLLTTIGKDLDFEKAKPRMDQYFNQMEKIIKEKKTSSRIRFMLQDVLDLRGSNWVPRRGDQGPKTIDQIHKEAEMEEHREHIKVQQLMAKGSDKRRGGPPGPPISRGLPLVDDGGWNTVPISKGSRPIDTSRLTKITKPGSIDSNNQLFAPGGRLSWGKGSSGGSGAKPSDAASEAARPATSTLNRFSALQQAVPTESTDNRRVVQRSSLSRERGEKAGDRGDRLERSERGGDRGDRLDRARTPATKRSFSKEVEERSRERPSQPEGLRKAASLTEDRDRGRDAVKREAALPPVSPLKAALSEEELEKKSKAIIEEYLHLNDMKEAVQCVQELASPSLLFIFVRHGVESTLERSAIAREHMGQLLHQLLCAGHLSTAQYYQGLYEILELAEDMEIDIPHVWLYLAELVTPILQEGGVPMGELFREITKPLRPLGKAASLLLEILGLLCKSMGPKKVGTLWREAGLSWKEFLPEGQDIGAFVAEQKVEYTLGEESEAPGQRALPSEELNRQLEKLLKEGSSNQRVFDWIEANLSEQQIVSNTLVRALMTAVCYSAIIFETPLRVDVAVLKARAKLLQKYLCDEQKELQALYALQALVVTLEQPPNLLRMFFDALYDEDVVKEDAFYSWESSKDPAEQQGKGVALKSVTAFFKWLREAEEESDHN"}, "source": "the supplement of paper PMC12819154", "about": "“High-throughput peptide-centric local stability assay extends protein–ligand identification to membrane proteins, tissues and bacteria” (Nature Structural & Molecular Biology, 2025)", "note": "The list shows a part of the results. Most entries show no effect beyond the scatter of the controls."}
{"compound": "Cc1nc(Nc2ncc(C(=O)Nc3c(C)cccc3Cl)s2)cc(N2CCN(CCO)CC2)n1 [dasatinib]", "assay": "log2 fold change of tryptic peptide abundance, ligand vs vehicle (limited proteolysis) (log2 ratio); higher = more trypsin-susceptible (destabilized)", "settings": "ligand concentration: 5 uM; sample: K562 cleared lysate"}
{"target": "UniProt Q03112 (peptide sequence: SGLSALDHIR, peptide start residue: 1133)", "log2 fold change": 0.186}
{"target": "KLC1 (peptide sequence: DDESNLVEEKSNMIR, peptide start residue: 59) (UniProt Q07866)", "log2 fold change": -0.713}
{"target": "FCHO2 (peptide sequence: NLSNEELTK, peptide start residue: 401) (UniProt Q0JRZ9)", "log2 fold change": 0.303}
{"target": "TFCP2 (peptide sequence: MVRPRLTIYVCQESLQLR, peptide start residue: 385) (UniProt Q12800)", "log2 fold change": 0.107}
{"target": "DEUP1 (peptide sequence: ELFSVMQDQPNHEK, peptide start residue: 330) (UniProt Q05D60)", "log2 fold change": -0.616}
{"target": "SOX4 (peptide sequence: HMADYPDYK, peptide start residue: 100) (UniProt Q06945)", "log2 fold change": -0.657}
{"target": "RING1 (peptide sequence: VSRPLELCYAPTK, peptide start residue: 391) (UniProt Q06587)", "log2 fold change": -0.779}
{"target": "PURA (peptide sequence: ALKSEFLVR, peptide start residue: 118) (UniProt Q00577)", "log2 fold change": 0.231}
{"target": "FOXO4 (peptide sequence: SSSNASSVSTR, peptide start residue: 260) (UniProt P98177)", "log2 fold change": 0.426}
{"target": "ACACA (peptide sequence: QVLIASHLPSYELR, peptide start residue: 1083) (UniProt Q13085)", "log2 fold change": 0.0941}
{"target": "EP300 (peptide sequence: MESTETEER, peptide start residue: 1007) (UniProt Q09472)", "log2 fold change": -0.154}
{"target": "DMTN (peptide sequence: TSLPHFHHPETSRPDSNIYK, peptide start residue: 123) (UniProt Q08495)", "log2 fold change": 0.246}
{"target": "YWHAH (peptide sequence: GDREQLLQR, peptide start residue: 2) (UniProt Q04917)", "log2 fold change": 0.0917}
{"target": "UniProt Q08ER8 (peptide sequence: HSIIHTGEKPYECSECGK, peptide start residue: 529)", "log2 fold change": -0.154}
{"target": "AKAP13 (peptide sequence: EKEKDSK, peptide start residue: 484) (UniProt Q12802)", "log2 fold change": 0.518}
{"target": "PCTK3 (peptide sequence: LEHEEGAPCTAIR, peptide start residue: 198) (UniProt Q07002)", "log2 fold change": -0.0731}
{"target": "UBE3A (peptide sequence: LEMIAMENPADLKK, peptide start residue: 540) (UniProt Q05086)", "log2 fold change": 0.382}
{"target": "UniProt Q00056 (peptide sequence: DHKLPNTK, peptide start residue: 220)", "log2 fold change": -0.164}
{"target": "MRPL28 (peptide sequence: TPTPVHYRPHGAK, peptide start residue: 37) (UniProt Q13084)", "log2 fold change": 0.424}
{"target": "DLG1 (peptide sequence: DKGEIPDDMGSK, peptide start residue: 666) (UniProt Q12959)", "log2 fold change": -0.36}
{"target": "DMPK (peptide sequence: DIKPDNILLDR, peptide start residue: 195) (UniProt Q09013)", "log2 fold change": -0.897}
{"target": "CALD1 (peptide sequence: AAAQERERR, peptide start residue: 301) (UniProt Q05682)", "log2 fold change": -0.246}
{"target": "ILF3 (peptide sequence: DLCTRVPTWGPLR, peptide start residue: 235) (UniProt Q12906)", "log2 fold change": 0.436}
{"target": "PPP3CA (peptide sequence: ITSFEEAK, peptide start residue: 467) (UniProt Q08209)", "log2 fold change": 0.0808}
{"target": "SARNP (peptide sequence: KSEDDEKLK, peptide start residue: 167) (UniProt P82979)", "log2 fold change": -0.251}
{"target": "TP53BP1 (peptide sequence: GNLLHFPSSQGEEEK, peptide start residue: 1060) (UniProt Q12888)", "log2 fold change": 0.836}
{"target": "GALK2 (peptide sequence: LIEFSPLR, peptide start residue: 204) (UniProt Q01415)", "log2 fold change": 0.0747}
{"target": "HSF2 (peptide sequence: HAQQQQVIR, peptide start residue: 168) (UniProt Q03933)", "log2 fold change": -0.559}
{"target": "BCL2L1 (peptide sequence: EAGDEFELR, peptide start residue: 92) (UniProt Q07817)", "log2 fold change": 0.0682}
{"target": "DAB2 (peptide sequence: KGPEKTDEYLLAR, peptide start residue: 30) (UniProt P98082)", "log2 fold change": -0.592}
{"target": "ACY1 (peptide sequence: VVNSILAFR, peptide start residue: 222) (UniProt Q03154)", "log2 fold change": 0.0883}
{"target": "UniProt Q13023 (peptide sequence: SERASSSEK, peptide start residue: 741)", "log2 fold change": 0.112}
{"target": "UBXN1 (peptide sequence: EKAEELAAR, peptide start residue: 153) (UniProt Q04323)", "log2 fold change": 0.0565}
{"target": "CSTF3 (peptide sequence: LLAEKGDMNNAK, peptide start residue: 307) (UniProt Q12996)", "log2 fold change": -0.345}
{"target": "UniProt Q03188 (peptide sequence: NMEEHEEMGNDCVSKK, peptide start residue: 461)", "log2 fold change": -0.979}
{"target": "CYP24A1 (peptide sequence: KLMKPGEVMK, peptide start residue: 165) (UniProt Q07973)", "log2 fold change": -0.0301}
{"target": "EIF4G1 (peptide sequence: LKMLTEAIMHDCVVK, peptide start residue: 908) (UniProt Q04637)", "log2 fold change": 1.01}
